Source: patent US11230535B2, “CFTR regulators and methods of use thereof” (THE REGENTS OF THE UNIVERSITY OF CALIFORNIA, priority 2015, dated 2022)
Some of these results come from one statement about several compounds together.

System: rat liver microsomes
Assay: In vitro metabolic stability in rat liver microsomes
Type: in vitro ADME
Settings: 5 μM, rat hepatic microsomes, NADPH
Procedure: In vitro metabolic stability. Compounds (each 5 μM) were incubated for specified times at 37° C. with rat liver microsomes (1 mg/ml; Sigma-Aldrich) in potassium phosphate buffer containing 1 mM NADPH, as described^14.

Row | SMILES | original compound remaining at 15 min
1 | CCN(CC)c1nc(Nc2ccccc2)nc(OC(C(F)(F)F)C(F)(F)F)n1 [CFTRact-K089, N,N-Diethyl-6-[(1,1,1,3,3,3-hexafluoropropan-2-yl)oxy]-N′-phenyl-1,3,5-triazine-2,4-diamine] | < 40%
2 | CNc1nc(Nc2ccccc2)nc(OCC(F)(F)C(F)F)n1 [compound 12, N-methyl-N′-phenyl-6-(2,2,3,3-tetrafluoropropoxy)-1,3,5-triazine-2,4-diamine] | < 40%
